Experimental data: PubChem BioAssay AID1159578 (Peter MacCallum Cancer Centre, 2015)
This is one part, drawn at random, of about 18,000 reagents tested. Over the whole deposit, about 1,030 (5.7%) are marked active. 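Inactive calls also include pools with fewer than 3300 nuclei, whose migration was not assessed.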 Raw values are not corrected between plates. Not all columns of the deposit are shown.

Screen: 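Knock-downs that alter how fast lymphatic endothelial cells migrate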 (primary screen)
Cells: human lymphatic endothelial cells
Reagent: siRNA pool against human genes, 40 nM
Time to read-out: 48 h after transfection
Detection: 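Cells stained with dye and imaged after a scratch; covered wound area and nuclei counted, duplicates averaged, migration set against mock wells and turned into a robust z-score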
Direction: migration robust z-score: higher = faster migration into the scratch; nuclei per well: higher = more cells in the well
Hit rule: 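Pools averaging fewer than 3300 nuclei are never called; remaining pools count as changed when migration robust z lies outside -2 to 2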
Meaning of the calls: active = migration changed; inactive = no migration change, or too few cells

With knock-down of TAPT1, the record shows migration robust z-score 0.67; migration class with cell-count check migration z between -2 and 2; enough cells; nuclei per well, duplicate mean 4051; inactive.
Knock-down of LARP6 came out at: migration robust z-score 0.22; migration class with cell-count check migration z between -2 and 2; enough cells; nuclei per well, duplicate mean 6227; inactive.
Against TTLL3, the entry reads migration robust z-score -3.01; migration class with cell-count check migration z below -2; enough cells; nuclei per well, duplicate mean 5011; active.
Against EFCAB12 the deposit lists migration robust z-score -2.32; migration class with cell-count check migration z below -2; enough cells; nuclei per well, duplicate mean 5820; active.
ZSCAN22 gave migration robust z-score -1.45; migration class with cell-count check migration z between -2 and 2; enough cells; nuclei per well, duplicate mean 5870; inactive.
Knock-down of DNASE2 came out at: migration robust z-score -0.96; migration class with cell-count check migration z between -2 and 2; enough cells; nuclei per well, duplicate mean 5051; inactive.
OR5T3 showed migration robust z-score 0.02; migration class with cell-count check migration z between -2 and 2; enough cells; nuclei per well, duplicate mean 4564; inactive.
OR10K1 showed migration robust z-score -0.82; migration class with cell-count check migration z between -2 and 2; enough cells; nuclei per well, duplicate mean 6001; inactive.
SCD5 showed migration robust z-score 0.39; migration class with cell-count check migration z between -2 and 2; enough cells; nuclei per well, duplicate mean 4540; inactive.
Against SLC44A4 the deposit lists migration robust z-score 1.38; migration class with cell-count check migration z between -2 and 2; enough cells; nuclei per well, duplicate mean 5666; inactive.
After knock-down of PI4KB, the screen gave migration robust z-score -2.93; migration class with cell-count check migration z below -2; enough cells; nuclei per well, duplicate mean 4252; active.
For ZKSCAN7, the entry reads migration robust z-score 0.68; migration class with cell-count check migration z between -2 and 2; enough cells; nuclei per well, duplicate mean 4896; inactive.
FIBP scored migration robust z-score 0.88; migration class with cell-count check migration z between -2 and 2; enough cells; nuclei per well, duplicate mean 6672; inactive.
CHD3 showed migration robust z-score 0.03; migration class with cell-count check migration z between -2 and 2; enough cells; nuclei per well, duplicate mean 5368; inactive.
KCNK16 showed migration robust z-score -1.04; migration class with cell-count check migration z between -2 and 2; enough cells; nuclei per well, duplicate mean 3791; inactive.
Depletion of TEX47 gave: migration robust z-score 0.52; migration class with cell-count check migration z between -2 and 2; enough cells; nuclei per well, duplicate mean 5492; inactive.
GAL3ST4 scored migration robust z-score 1.19; migration class with cell-count check migration z between -2 and 2; enough cells; nuclei per well, duplicate mean 5458; inactive.
With knock-down of PHOX2B, the screen gave migration robust z-score -0.7; migration class with cell-count check migration z between -2 and 2; enough cells; nuclei per well, duplicate mean 5943; inactive.
KIF20A gave migration robust z-score -0.52; migration class with cell-count check migration z between -2 and 2; enough cells; nuclei per well, duplicate mean 5683; inactive.
For EEF1G the deposit lists migration robust z-score -0.34; migration class with cell-count check migration z between -2 and 2; enough cells; nuclei per well, duplicate mean 6031; inactive.
Against PITHD1 the deposit lists migration robust z-score -0.94; migration class with cell-count check migration z between -2 and 2; enough cells; nuclei per well, duplicate mean 6201; inactive.

2 entries already listed, sorted by “migration robust z-score”, low to high.
TTLL3 → migration robust z-score: -3.01; migration class with cell-count check: migration z below -2; enough cells; nuclei per well, duplicate mean: 5011; Call: active
EFCAB12 → migration robust z-score: -2.32; migration class with cell-count check: migration z below -2; enough cells; nuclei per well, duplicate mean: 5820; Call: active
